Record: PubChem BioAssay AID1053208 (Peter MacCallum Cancer Centre, 2014)

Assay: 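Find knock-downs that sensitise mouse osteosarcoma cells to doxorubicin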 (primary screen)
Cells: mouse osteosarcoma cells, early-passage culture from an engineered mouse model of fibroblastic bone tumour
Reagent: siRNA pool against mouse genes, 40 nM
Timing: about 120 h (48 h before drug, then 72 h with drug)
Conditions: doxorubicin 100 nM for 72 h, roughly 30-40% inhibitory dose
Read-out: 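Luminescent ATP signal taken as viability with or without 100 nM doxorubicin for 72 h; mean of two wells set against non-targeting siRNA and turned into robust z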
Scale: viability z-score with doxorubicin and doxorubicin viability vs non-targeting: higher = more viable cells under doxorubicin; viability z-score without drug: higher = more viable cells with knock-down alone; z-score of drug to no-drug ratio: higher = less drug sensitisation by knock-down
Active means: 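Called active if knock-down leaves viability unchanged without drug (z within -2 to 2) but lowers it with doxorubicin (z at or under -2)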
Shown is a random part of about 17,000 reagents tested. 788 of them (4.7%) were called active. 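Calls rest on z-score classes alone; an extra cut-off of viability at most 70% of control was not applied to them.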 Reagents against one gene are numbered here. Some reagents were tested in more than one well and are listed for each. No sequences are given here.

The first 7 records as a preview:
| gene | pool no. | combined z-score class | viability z-score with doxorubicin | viability z-score without drug | z-score of drug to no-drug ratio | doxorubicin viability vs non-targeting | outcome |
| --- | --- | --- | --- | --- | --- | --- | --- |
| Spout1 (SPOUT domain containing methyltransferase 1) | 1 | no change with or without drug | -0.9 | 0.17 | -0.9 | 0.86 | inactive |
| Cnn3 (calponin 3, acidic) | 1 | no change with or without drug | -1.12 | -0.17 | -1.01 | 0.84 | inactive |
| Astl (astacin like metalloendopeptidase) | 1 | no change with or without drug | -1.57 | 0.17 | -1.69 | 0.8 | inactive |
| Ceacam11 (CEA cell adhesion molecule 11) | 1 | no change with or without drug | -0.67 | 0.17 | -0.67 | 0.88 | inactive |
| Pacsin2 (protein kinase C and casein kinase substrate in neurons 2) | 1 | no change with or without drug | -1.8 | -0.84 | -1.24 | 0.78 | inactive |
| Slc12a3 | 1 | no change with or without drug | 0.22 | -0.34 | 0.56 | 0.96 | inactive |
| Fcsk (fucose kinase) | 1 | no change with or without drug | -0.22 | 0.84 | -0.67 | 0.92 | inactive |

Results, from the start:
| gene | pool no. | combined z-score class | viability z-score with doxorubicin | viability z-score without drug | z-score of drug to no-drug ratio | doxorubicin viability vs non-targeting | outcome |
| --- | --- | --- | --- | --- | --- | --- | --- |
| Spout1 (SPOUT domain containing methyltransferase 1) | 1 | no change with or without drug | -0.9 | 0.17 | -0.9 | 0.86 | inactive |
| Cnn3 (calponin 3, acidic) | 1 | no change with or without drug | -1.12 | -0.17 | -1.01 | 0.84 | inactive |
| Astl (astacin like metalloendopeptidase) | 1 | no change with or without drug | -1.57 | 0.17 | -1.69 | 0.8 | inactive |
| Ceacam11 (CEA cell adhesion molecule 11) | 1 | no change with or without drug | -0.67 | 0.17 | -0.67 | 0.88 | inactive |
| Pacsin2 (protein kinase C and casein kinase substrate in neurons 2) | 1 | no change with or without drug | -1.8 | -0.84 | -1.24 | 0.78 | inactive |
| Slc12a3 | 1 | no change with or without drug | 0.22 | -0.34 | 0.56 | 0.96 | inactive |
| Fcsk (fucose kinase) | 1 | no change with or without drug | -0.22 | 0.84 | -0.67 | 0.92 | inactive |
| Spmip4 (sperm microtubule inner protein 4) | 1 | no change with or without drug | 0.22 | -1.18 | 1.24 | 0.96 | inactive |
| Klrg1 (killer cell lectin-like receptor subfamily G, member 1) | 1 | no change with or without drug | 0 | -0.17 | 0.22 | 0.94 | inactive |
| Or8b46 (olfactory receptor family 8 subfamily B member 46) | 1 | no change with or without drug | 1.46 | -0.17 | 1.8 | 1.07 | inactive |
| Gtpbp1 (GTP binding protein 1) | 1 | no change with or without drug | -0.45 | -0.84 | 0.22 | 0.9 | inactive |
| Ctf2 (cardiotrophin 2) | 1 | no change with or without drug | 0.34 | 0.34 | 0.22 | 0.97 | inactive |
| Pgm1 (phosphoglucomutase 1) | 1 | no change with or without drug | -1.35 | 0.17 | -1.46 | 0.82 | inactive |
| Adra1a (adrenergic receptor, alpha 1a) | 1 | no change with or without drug | -0.45 | -1.52 | 0.79 | 0.9 | inactive |
| Adra1a (adrenergic receptor, alpha 1a) | 1 | no change with or without drug | 0.34 | 0 | 0.45 | 0.97 | inactive |
| H2-Q6 (histocompatibility 2, Q region locus 6) | 1 | no change with or without drug | -1.35 | -0.51 | -1.01 | 0.82 | inactive |
| Pou3f2 (POU domain, class 3, transcription factor 2) | 1 | high cell count without drug only | 1.12 | 2.36 | -0.34 | 1.04 | inactive |
| Hat1 (histone aminotransferase 1) | 1 | no change with or without drug | -1.01 | 0.17 | -1.01 | 0.85 | inactive |
| Phgr1 (proline/histidine/glycine-rich 1) | 1 | no change with or without drug | 0.9 | -0.17 | 1.24 | 1.02 | inactive |
| Dusp15 (dual specificity phosphatase-like 15) | 1 | high cell count with doxorubicin only | 2.02 | 0.51 | 1.8 | 1.12 | inactive |
| Me2 (malic enzyme 2, NAD(+)-dependent, mitochondrial) | 1 | high cell count with doxorubicin only | 2.36 | 0.17 | 2.47 | 1.15 | inactive |
| Fjx1 (four jointed box 1) | 1 | no change with or without drug | -0.56 | -0.17 | -0.34 | 0.89 | inactive |
| Ankfy1 (ankyrin repeat and FYVE domain containing 1) | 1 | no change with or without drug | -0.22 | -1.85 | 1.35 | 0.92 | inactive |
| Carf (calcium response factor) | 1 | no change with or without drug | 0.9 | 1.52 | 0 | 1.02 | inactive |
| Hpx (hemopexin) | 1 | no change with or without drug | 0.67 | 0.51 | 0.45 | 1 | inactive |
| Foxq1 (forkhead box Q1) | 1 | no change with or without drug | -0.79 | -0.84 | -0.11 | 0.87 | inactive |
| Akt2 (Akt serine/threonine kinase 2) | 1 | no change with or without drug | -1.12 | -1.01 | -0.45 | 0.84 | inactive |
| Farsa (phenylalanyl-tRNA synthetase, alpha subunit) | 1 | no change with or without drug | -0.22 | 0.84 | -0.67 | 0.92 | inactive |
| Nell1 (NEL-like 1) | 1 | no change with or without drug | 0.67 | -0.51 | 1.24 | 1 | inactive |
| Htatip2 (HIV-1 Tat interactive protein 2) | 1 | no change with or without drug | 0.79 | 1.52 | -0.11 | 1.01 | inactive |
| Recql4 (RecQ protein-like 4) | 1 | no change with or without drug | -0.11 | -0.51 | 0.34 | 0.93 | inactive |
| Pelo (pelota mRNA surveillance and ribosome rescue factor) | 1 | low cell count with and without drug | -2.7 | -2.53 | -1.24 | 0.7 | inactive |
| Nrg4 (neuregulin 4) | 1 | no change with or without drug | -0.45 | 0.34 | -0.56 | 0.9 | inactive |
| Coa5 (cytochrome C oxidase assembly factor 5) | 1 | no change with or without drug | 0.9 | 1.01 | 0.34 | 1.02 | inactive |
| Coa5 (cytochrome C oxidase assembly factor 5) | 2 | high cell count without drug only | 0.45 | 2.19 | -0.79 | 0.98 | inactive |
| Gzmf (granzyme F) | 1 | no change with or without drug | 0.67 | 1.52 | -0.22 | 1 | inactive |
| Plxnb1 (plexin B1) | 1 | no change with or without drug | 0.22 | -1.18 | 1.24 | 0.96 | inactive |
| Fgg (fibrinogen gamma chain) | 1 | no change with or without drug | -0.67 | -0.51 | -0.22 | 0.88 | inactive |
| F3 (coagulation factor III, tissue factor) | 1 | no change with or without drug | -0.22 | -0.17 | 0 | 0.92 | inactive |
| Tnfrsf1a (tumor necrosis factor receptor superfamily, member 1a) | 1 | low cell count with doxorubicin only | -3.15 | -1.69 | -2.25 | 0.66 | active |
| Pard3b (par-3 family cell polarity regulator beta) | 1 | no change with or without drug | -0.56 | 1.18 | -1.24 | 0.89 | inactive |
| Or6k14 (olfactory receptor family 6 subfamily K member 14) | 1 | no change with or without drug | 1.57 | 0.84 | 1.12 | 1.08 | inactive |
| Fbln2 (fibulin 2) | 1 | no change with or without drug | -0.56 | 0.51 | -0.79 | 0.89 | inactive |
| Fam168a (family with sequence similarity 168, member A) | 1 | no change with or without drug | 0.11 | 0 | 0.22 | 0.95 | inactive |
| Ehd1 (EH-domain containing 1) | 1 | no change with or without drug | -0.67 | -0.51 | -0.22 | 0.88 | inactive |
| Catsperz (cation channel sperm associated auxiliary subunit zeta) | 1 | no change with or without drug | 0.67 | 0.84 | 0.22 | 1 | inactive |
| Rnf121 (ring finger protein 121) | 1 | low cell count with doxorubicin only | -3.15 | -1.35 | -2.47 | 0.66 | active |
| Tubg2 (tubulin, gamma 2) | 1 | no change with or without drug | -1.12 | -1.52 | 0 | 0.84 | inactive |
| Myo1b (myosin IB) | 1 | no change with or without drug | 0 | -0.84 | 0.67 | 0.94 | inactive |
| A830019P07Rik (RIKEN cDNA A830019P07 gene) | 1 | no change with or without drug | 0.11 | -0.84 | 0.9 | 0.95 | inactive |
| Ifitm1 (interferon induced transmembrane protein 1) | 1 | no change with or without drug | 0.11 | 1.18 | -0.56 | 0.95 | inactive |
| Os9 (amplified in osteosarcoma) | 1 | no change with or without drug | 0.9 | 1.35 | 0.11 | 1.02 | inactive |
| Zfp830 (zinc finger protein 830) | 1 | no change with or without drug | 1.69 | 1.01 | 1.12 | 1.09 | inactive |
| Frmpd3 (FERM and PDZ domain containing 3) | 1 | no change with or without drug | -1.91 | -0.17 | -1.8 | 0.77 | inactive |
| Slc4a2 | 1 | low cell count with doxorubicin only | -2.25 | 0.34 | -2.47 | 0.74 | active |
| Lhx4 (LIM homeobox protein 4) | 1 | low cell count with doxorubicin only | -2.47 | 0.34 | -2.7 | 0.72 | active |
| Cyp27b1 (cytochrome P450, family 27, subfamily b, polypeptide 1) | 1 | no change with or without drug | 1.8 | 1.18 | 1.12 | 1.1 | inactive |
| Spi1 (Spi-1 proto-oncogene) | 1 | no change with or without drug | 0 | 0.34 | -0.11 | 0.94 | inactive |
| Sprn (shadow of prion protein) | 1 | no change with or without drug | 0.9 | -0.17 | 1.24 | 1.02 | inactive |
| Adam1a (a disintegrin and metallopeptidase domain 1a) | 1 | no change with or without drug | 0.22 | -0.17 | 0.45 | 0.96 | inactive |
| Tspan8 (tetraspanin 8) | 1 | no change with or without drug | 1.35 | 1.01 | 0.79 | 1.06 | inactive |
| Ankle1 (ankyrin repeat and LEM domain containing 1) | 1 | no change with or without drug | 0.22 | 0.84 | -0.22 | 0.96 | inactive |
| Plat (plasminogen activator, tissue) | 1 | high cell count without drug only | 1.35 | 2.19 | 0 | 1.06 | inactive |
